The record followed here is the supplement of paper PMC10849652.

Amino acid sequences for entries named in this document (tags omitted). A change or cut given only in a name is not applied to a line headed by its entry.
UniProt P49773: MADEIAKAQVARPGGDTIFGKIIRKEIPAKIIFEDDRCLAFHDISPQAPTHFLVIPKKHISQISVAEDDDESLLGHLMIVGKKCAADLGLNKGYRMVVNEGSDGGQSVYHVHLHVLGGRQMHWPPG
UniProt P26583: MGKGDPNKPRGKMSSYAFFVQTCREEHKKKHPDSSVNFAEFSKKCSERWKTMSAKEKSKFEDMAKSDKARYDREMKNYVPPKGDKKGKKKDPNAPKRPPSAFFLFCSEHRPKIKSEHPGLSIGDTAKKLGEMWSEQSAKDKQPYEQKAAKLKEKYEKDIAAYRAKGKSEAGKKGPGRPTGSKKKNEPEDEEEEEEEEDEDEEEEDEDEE
UniProt P09651: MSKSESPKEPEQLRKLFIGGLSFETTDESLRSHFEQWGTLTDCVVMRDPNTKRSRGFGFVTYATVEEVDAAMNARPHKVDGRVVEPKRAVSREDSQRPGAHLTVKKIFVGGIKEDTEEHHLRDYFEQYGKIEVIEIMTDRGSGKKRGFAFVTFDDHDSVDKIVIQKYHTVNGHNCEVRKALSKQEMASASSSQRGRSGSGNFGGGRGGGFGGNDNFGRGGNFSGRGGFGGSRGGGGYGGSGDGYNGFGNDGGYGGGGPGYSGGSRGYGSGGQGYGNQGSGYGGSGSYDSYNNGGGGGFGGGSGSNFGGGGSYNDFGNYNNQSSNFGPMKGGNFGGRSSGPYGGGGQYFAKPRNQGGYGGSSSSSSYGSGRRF
UniProt P54198, whole entry, looked up: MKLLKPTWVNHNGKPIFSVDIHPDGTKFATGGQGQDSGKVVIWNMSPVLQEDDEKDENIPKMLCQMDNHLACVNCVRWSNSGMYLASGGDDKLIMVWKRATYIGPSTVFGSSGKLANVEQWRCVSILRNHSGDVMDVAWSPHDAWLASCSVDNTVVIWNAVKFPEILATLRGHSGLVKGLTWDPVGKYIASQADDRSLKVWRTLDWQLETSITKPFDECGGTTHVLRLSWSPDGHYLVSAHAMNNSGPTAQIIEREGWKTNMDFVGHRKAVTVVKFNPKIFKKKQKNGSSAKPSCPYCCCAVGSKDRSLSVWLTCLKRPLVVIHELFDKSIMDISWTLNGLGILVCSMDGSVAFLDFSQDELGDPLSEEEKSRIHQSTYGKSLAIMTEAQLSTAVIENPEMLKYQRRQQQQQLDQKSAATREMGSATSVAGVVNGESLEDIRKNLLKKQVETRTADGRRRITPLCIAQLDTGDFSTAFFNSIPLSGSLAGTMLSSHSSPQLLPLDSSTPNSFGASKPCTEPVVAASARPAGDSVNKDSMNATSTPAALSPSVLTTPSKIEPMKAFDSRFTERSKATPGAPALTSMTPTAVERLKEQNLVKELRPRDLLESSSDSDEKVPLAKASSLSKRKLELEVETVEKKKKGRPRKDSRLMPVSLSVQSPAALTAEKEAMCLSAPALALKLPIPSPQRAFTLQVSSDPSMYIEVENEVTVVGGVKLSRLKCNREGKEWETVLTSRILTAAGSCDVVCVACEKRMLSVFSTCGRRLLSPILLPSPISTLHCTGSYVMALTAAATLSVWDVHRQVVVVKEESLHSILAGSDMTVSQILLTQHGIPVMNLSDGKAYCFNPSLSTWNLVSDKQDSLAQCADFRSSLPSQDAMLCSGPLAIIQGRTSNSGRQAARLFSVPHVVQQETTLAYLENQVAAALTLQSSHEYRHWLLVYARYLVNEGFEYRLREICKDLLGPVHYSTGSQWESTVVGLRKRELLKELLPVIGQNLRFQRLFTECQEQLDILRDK
UniProt Q0VDF9: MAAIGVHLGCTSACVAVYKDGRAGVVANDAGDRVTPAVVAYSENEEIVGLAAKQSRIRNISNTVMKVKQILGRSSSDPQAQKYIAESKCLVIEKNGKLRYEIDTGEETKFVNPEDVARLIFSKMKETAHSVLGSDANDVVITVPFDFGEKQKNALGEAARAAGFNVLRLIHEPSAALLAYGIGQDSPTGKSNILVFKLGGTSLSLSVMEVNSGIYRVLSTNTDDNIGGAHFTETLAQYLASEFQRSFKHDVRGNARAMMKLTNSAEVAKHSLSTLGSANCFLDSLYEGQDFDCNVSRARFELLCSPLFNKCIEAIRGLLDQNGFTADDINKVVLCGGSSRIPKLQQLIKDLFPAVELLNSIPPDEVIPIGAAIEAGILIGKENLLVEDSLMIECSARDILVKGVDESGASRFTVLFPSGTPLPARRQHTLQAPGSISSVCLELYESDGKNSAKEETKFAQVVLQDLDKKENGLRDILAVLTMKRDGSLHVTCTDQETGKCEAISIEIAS
UniProt Q8TCT9: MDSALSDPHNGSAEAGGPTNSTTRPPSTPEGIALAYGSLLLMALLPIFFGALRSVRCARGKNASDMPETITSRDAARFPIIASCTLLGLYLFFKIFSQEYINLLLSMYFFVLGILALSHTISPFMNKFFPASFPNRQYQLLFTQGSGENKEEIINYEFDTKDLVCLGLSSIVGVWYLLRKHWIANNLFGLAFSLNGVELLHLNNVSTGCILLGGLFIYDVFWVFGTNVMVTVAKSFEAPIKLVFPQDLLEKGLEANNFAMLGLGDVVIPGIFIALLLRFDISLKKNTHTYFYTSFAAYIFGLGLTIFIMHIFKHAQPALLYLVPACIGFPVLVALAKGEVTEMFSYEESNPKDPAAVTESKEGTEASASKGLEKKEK
UniProt Q53GQ0: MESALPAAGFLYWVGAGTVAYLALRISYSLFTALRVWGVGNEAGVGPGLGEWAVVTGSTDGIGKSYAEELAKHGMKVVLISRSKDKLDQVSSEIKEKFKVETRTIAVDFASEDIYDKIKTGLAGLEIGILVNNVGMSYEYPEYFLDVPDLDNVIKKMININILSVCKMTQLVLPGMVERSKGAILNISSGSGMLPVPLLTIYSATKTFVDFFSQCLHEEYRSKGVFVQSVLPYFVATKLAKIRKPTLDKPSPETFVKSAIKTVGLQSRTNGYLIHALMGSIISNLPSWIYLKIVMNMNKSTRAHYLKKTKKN
UniProt Q6AI08: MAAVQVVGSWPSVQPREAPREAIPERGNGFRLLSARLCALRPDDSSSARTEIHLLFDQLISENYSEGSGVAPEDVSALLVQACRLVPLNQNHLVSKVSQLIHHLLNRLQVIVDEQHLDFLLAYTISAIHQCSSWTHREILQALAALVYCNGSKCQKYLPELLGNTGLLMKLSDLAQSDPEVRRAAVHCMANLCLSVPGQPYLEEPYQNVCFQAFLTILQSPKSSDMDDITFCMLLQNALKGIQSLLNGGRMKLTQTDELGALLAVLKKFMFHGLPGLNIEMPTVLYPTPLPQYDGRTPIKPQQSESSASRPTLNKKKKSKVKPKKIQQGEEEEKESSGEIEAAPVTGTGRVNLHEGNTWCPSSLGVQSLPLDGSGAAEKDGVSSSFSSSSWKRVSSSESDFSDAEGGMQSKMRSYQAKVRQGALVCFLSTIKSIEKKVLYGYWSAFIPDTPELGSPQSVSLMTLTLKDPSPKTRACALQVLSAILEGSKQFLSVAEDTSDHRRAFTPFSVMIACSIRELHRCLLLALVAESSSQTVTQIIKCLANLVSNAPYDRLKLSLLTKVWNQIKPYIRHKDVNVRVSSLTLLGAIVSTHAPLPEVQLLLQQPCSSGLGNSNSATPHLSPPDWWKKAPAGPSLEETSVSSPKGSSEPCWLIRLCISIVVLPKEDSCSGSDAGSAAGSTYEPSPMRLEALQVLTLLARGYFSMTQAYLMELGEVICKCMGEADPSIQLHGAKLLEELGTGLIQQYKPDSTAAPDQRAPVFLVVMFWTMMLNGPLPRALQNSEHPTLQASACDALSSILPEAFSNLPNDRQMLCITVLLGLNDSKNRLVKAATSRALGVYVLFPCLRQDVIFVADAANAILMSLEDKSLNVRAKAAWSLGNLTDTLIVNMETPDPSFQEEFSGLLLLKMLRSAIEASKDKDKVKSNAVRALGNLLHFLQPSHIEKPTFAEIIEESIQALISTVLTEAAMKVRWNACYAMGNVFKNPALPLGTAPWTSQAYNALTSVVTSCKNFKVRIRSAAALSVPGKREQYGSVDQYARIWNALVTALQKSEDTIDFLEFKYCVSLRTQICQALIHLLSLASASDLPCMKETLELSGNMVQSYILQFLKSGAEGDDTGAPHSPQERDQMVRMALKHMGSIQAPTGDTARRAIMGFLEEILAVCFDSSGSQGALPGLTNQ
UniProt P17482: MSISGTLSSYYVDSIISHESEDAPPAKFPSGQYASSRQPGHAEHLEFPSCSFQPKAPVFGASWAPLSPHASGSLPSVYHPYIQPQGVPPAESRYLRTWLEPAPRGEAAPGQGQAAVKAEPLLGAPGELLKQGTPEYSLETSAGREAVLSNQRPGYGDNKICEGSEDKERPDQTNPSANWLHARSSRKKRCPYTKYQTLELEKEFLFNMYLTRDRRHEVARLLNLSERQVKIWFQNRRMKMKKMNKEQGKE
UniProt Q9NWY4: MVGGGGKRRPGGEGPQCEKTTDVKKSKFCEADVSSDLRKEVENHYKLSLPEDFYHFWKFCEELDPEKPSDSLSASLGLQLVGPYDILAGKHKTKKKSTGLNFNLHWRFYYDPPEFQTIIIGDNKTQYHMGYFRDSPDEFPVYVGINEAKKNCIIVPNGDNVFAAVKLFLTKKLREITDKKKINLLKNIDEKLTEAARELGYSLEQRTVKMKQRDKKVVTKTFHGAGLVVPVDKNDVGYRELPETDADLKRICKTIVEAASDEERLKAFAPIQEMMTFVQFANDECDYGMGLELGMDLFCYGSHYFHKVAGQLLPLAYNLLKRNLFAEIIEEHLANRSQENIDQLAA
UniProt P31943: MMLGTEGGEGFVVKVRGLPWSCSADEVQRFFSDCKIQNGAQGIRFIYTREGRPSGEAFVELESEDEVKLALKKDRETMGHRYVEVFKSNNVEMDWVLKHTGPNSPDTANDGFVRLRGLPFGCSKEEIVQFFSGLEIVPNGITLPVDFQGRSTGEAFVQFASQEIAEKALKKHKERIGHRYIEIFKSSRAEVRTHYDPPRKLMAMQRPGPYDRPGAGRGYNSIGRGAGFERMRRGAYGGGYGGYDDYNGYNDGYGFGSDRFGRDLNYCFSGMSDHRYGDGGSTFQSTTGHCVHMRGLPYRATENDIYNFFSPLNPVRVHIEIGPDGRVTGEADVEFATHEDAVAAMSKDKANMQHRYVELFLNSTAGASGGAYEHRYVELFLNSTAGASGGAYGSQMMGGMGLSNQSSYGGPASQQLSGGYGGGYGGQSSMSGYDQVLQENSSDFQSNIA
UniProt P19367: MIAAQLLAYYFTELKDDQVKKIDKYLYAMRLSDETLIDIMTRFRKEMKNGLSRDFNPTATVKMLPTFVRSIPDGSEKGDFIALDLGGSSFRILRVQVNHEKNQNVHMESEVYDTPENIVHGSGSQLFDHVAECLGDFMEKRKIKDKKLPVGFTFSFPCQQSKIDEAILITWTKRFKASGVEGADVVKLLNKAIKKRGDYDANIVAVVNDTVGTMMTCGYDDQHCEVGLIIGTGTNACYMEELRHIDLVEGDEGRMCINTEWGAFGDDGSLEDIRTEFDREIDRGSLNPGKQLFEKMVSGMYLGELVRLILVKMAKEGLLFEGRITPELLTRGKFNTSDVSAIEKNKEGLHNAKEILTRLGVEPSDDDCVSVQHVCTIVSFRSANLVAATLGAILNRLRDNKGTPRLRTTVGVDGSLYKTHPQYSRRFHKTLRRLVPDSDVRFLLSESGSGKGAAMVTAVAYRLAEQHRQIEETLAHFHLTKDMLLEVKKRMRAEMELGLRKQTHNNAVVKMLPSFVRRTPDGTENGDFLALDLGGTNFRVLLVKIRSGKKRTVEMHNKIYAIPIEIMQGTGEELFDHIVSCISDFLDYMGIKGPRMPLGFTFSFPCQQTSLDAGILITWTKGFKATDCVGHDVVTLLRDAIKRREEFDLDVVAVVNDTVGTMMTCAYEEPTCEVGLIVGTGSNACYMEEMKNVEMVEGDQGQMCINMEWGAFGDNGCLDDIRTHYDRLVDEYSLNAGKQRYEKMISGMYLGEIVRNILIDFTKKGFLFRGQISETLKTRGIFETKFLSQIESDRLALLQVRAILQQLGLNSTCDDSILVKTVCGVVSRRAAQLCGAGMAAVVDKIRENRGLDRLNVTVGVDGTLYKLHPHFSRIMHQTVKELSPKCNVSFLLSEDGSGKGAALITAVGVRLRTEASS
UniProt Q6DN03, whole entry, looked up: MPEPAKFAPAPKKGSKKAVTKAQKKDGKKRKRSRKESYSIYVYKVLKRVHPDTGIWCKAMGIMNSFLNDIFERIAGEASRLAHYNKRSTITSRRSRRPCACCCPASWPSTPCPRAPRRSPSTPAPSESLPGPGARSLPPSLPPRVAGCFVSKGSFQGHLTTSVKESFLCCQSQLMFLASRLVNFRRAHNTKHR
UniProt Q13151: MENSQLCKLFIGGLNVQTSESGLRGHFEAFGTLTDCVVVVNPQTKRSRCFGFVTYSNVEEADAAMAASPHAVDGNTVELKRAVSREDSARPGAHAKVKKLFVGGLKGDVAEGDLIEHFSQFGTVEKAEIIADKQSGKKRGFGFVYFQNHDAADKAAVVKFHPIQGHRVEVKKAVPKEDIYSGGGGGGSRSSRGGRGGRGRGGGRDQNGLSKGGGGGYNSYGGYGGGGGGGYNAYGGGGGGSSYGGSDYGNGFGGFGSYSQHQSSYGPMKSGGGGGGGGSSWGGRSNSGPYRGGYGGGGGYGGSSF

Some of the results follow.

Compound in the first test: CN1CCC(CNc2ccc3ncc(-c4cccc(OC(F)(F)F)c4)n3n2)CC1
Description: log2 fold change, soluble protein after heating vs DMSO (PISA); higher = thermal stabilisation; K562 lysate, 10 uM; active = over 0.2 and 3.5 SD of the protein, either way, in both replicates (recomputed). The gist of the method:
(§1)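 Pellets of K562 cells were dounce-homogenised in PBS pH 7.4 with 1 mM MgCl2, and the crude extract was held at 1 mg/mL protein for a 30 min treatment with 10 μM compound. Aliquots were heated for 3 min over 48°C-58°C and pooled before NP-40 was added to 0.5% at 4°C. The supernatant from 21,000xg for 90 min was quantified by TMTpro 16plex LC-MS/MS with channel sums equalised. Values are reported from duplicates as log-two fold change in thermal stability relative to solvent controls.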
With HINT1 (UniProt P49773), the log2 fold change was inactive: -0.031.

Regarding HMCN1 (UniProt Q96RW7), the log2 fold change was inactive: -0.268.

For the target HMGB2 (UniProt P26583), the log2 fold change was active: -0.273.

As for HNRNPA1 (UniProt P09651), the log2 fold change is inactive: -0.025.

With HIRA (UniProt P54198), the log2 fold change is inactive: -0.007.

On to HSPA14 (UniProt Q0VDF9), for which the log2 fold change is inactive: -0.021.

Compound in another test: CN1CCN(CCOc2cc(OC3CCOCC3)c3c(Nc4c(Cl)ccc5c4OCO5)ncnc3c2)CC1 [saracatinib]
The description is as above. The procedure, abridged:
as §1
Turning to HECTD3 (UniProt Q5T447), the log2 fold change was inactive: 0.032.

With HNRNPM (UniProt M0QZM1), the log2 fold change is inactive: -0.066.

Consider HM13 isoform 2 (UniProt Q8TCT9), for which the log2 fold change is inactive: 0.026.

For HSD17B12 (UniProt Q53GQ0), the log2 fold change was inactive: 0.105.

As for HLCS (UniProt P50747), the log2 fold change is inactive: -0.026.

For HEATR6 (UniProt Q6AI08), the log2 fold change is inactive: -0.007.

As to HOMER1 (UniProt Q86YM7), the log2 fold change is inactive: 0.012.

Turning to HOXB9 (UniProt P17482), the log2 fold change is inactive: -0.028.

For HJURP (UniProt Q8NCD3), the log2 fold change is inactive: 0.034.

For the target HSBP1 (UniProt O75506), the log2 fold change is inactive: -0.034.

Take HPF1 (UniProt Q9NWY4): the log2 fold change is inactive: -0.004.

On to HNRNPH1 (UniProt P31943), for which the log2 fold change was inactive: -0.005.

Turning to HPS5 (UniProt Q9UPZ3), the log2 fold change is inactive: -0.203.

Consider HEXA (UniProt P06865), for which the log2 fold change was inactive: -0.009.

With HNRNPA2B1 (UniProt P22626), the log2 fold change is inactive: -0.003.

For HNRNPDL (UniProt O14979), the log2 fold change is inactive: -0.036.

With HSF2 (UniProt Q03933), the log2 fold change was inactive: -0.05.

Turning to HEBP1 (UniProt Q9NRV9), the log2 fold change was inactive: 0.071.

On to HIST2H2BF isoform 2 (UniProt Q5QNW6), for which the log2 fold change was inactive: -0.045.

Consider HK1 isoform 2 (UniProt P19367), for which the log2 fold change is inactive: -0.015.

For the target HMOX2 (UniProt P30519), the log2 fold change is inactive: 0.017.

Regarding HEMGN (UniProt Q9BXL5), the log2 fold change was inactive: -0.027.

As for HIST2H2BC (UniProt Q6DN03), the log2 fold change is inactive: 0.

HNRNPA0 (UniProt Q13151): the log2 fold change was inactive: 0.101.

Regarding HINT1 (UniProt P49773), the log2 fold change was inactive: -0.01.

In the case of HPS4 isoform 4 (UniProt Q9NQG7), the log2 fold change was inactive: 0.01.

For the target HMGB2 (UniProt P26583), the log2 fold change is inactive: 0.007.

Turning to HNRNPA1 (UniProt P09651), the log2 fold change was inactive: -0.002.

As for HIRA (UniProt P54198), the log2 fold change is inactive: 0.066.

As for HSPA14 (UniProt Q0VDF9), the log2 fold change was inactive: 0.002.

Compound in the next test: CN1CCN(c2nc(C3=C(c4c[nH]c5ccccc45)C(=O)NC3=O)c3ccccc3n2)CC1 [sotrastaurin]
The description is as above. The gist of the method: as §1
Take HECTD3 (UniProt Q5T447): the log2 fold change was inactive: 0.027.

As to HNRNPM (UniProt M0QZM1), the log2 fold change was inactive: -0.054.

With HM13 isoform 2 (UniProt Q8TCT9), the log2 fold change is inactive: 0.013.

Regarding HSD17B12 (UniProt Q53GQ0), the log2 fold change was inactive: 0.071.

As to HLCS (UniProt P50747), the log2 fold change is inactive: 0.027.

With HEATR6 (UniProt Q6AI08), the log2 fold change was inactive: 0.064.

Consider HOMER1 (UniProt Q86YM7), for which the log2 fold change was inactive: 0.016.

With HOXB9 (UniProt P17482), the log2 fold change is inactive: -0.058.

Turning to HJURP (UniProt Q8NCD3), the log2 fold change was inactive: -0.068.

As for HPF1 (UniProt Q9NWY4), the log2 fold change is inactive: 0.077.

For HNRNPH1 (UniProt P31943), the log2 fold change was inactive: -0.044.

Take HPS5 (UniProt Q9UPZ3): the log2 fold change was inactive: 0.084.

With HEXA (UniProt P06865), the log2 fold change is inactive: 0.008.

For HNRNPA2B1 (UniProt P22626), the log2 fold change is inactive: 0.009.

Consider HNRNPDL (UniProt O14979), for which the log2 fold change is inactive: -0.098.

As for HEBP1 (UniProt Q9NRV9), the log2 fold change is inactive: 0.038.

HIST2H2BF isoform 2 (UniProt Q5QNW6): the log2 fold change was inactive: -0.005.

In the case of HK1 isoform 2 (UniProt P19367), the log2 fold change was inactive: 0.004.

For the target HMOX2 (UniProt P30519), the log2 fold change was inactive: 0.036.

For HEMGN (UniProt Q9BXL5), the log2 fold change is inactive: -0.011.

As to HIST2H2BC (UniProt Q6DN03), the log2 fold change is inactive: -0.01.

As to HNRNPA0 (UniProt Q13151), the log2 fold change was inactive: 0.051.

With HINT1 (UniProt P49773), the log2 fold change was inactive: -0.021.

Consider HPS4 isoform 4 (UniProt Q9NQG7), for which the log2 fold change is inactive: 0.045.

On to HMGB2 (UniProt P26583), for which the log2 fold change was inactive: -0.04.

Take HNRNPA1 (UniProt P09651): the log2 fold change was inactive: -0.011.

As for HIRA (UniProt P54198), the log2 fold change is inactive: 0.085.

For HSPA14 (UniProt Q0VDF9), the log2 fold change was inactive: 0.039.
